Experimental data taken from patent US20230391817A1, “5ALPHA-HYDROXY-6BETA-[2-(1-H-IMIDAZOL-4-YL)-ETHYLAMINO]-CHOLESTAN-3BETA-OL ANALOGUES AND PHARMACEUTICAL COMPOSITIONS COMPRISING SAME FOR USE IN THE TREATMENT OF CANCER” (priority 2020, published 2023).
The name of at least one read-out is uncertain.

Assay: Oral pharmacokinetic study in rat, LC/MS assay in plasma (Examples 21-24)
Type: in vivo
Conditions: 50 mg/kg
Method: The following study is an LC/MS assay in plasma of the various molecules over 3 days (11 measurement points in the end). The graphs are always presented in comparison with DX101 which is the reference.
Plasma sampling at 0 (without injection), 5, 10, 15, 30 min, 1 h, 4 h, 8 h, 24 h, 48 h, 72 h (11 points)

With `CC(C)CCC[C@@H](C)[C@H]1CC[C@H]2[C@@H]3C[C@@H](NCCc4c[nH]cn4)[C@@]4(O)C[C@@H](O)CC[C@]4(C)[C@H]3CC[C@]12C` [DX101, 5α-hydroxy-6β-[2-(1H-imidazol-4-yl)ethylamino]cholestan-3β-ol, reference compound] as the molecule, how does the “Time for Cmax” value (Example 24) read?
Its value is 4 min.

What about the “Time for Cmax” value (Examples 21-23) of the same molecule?
The value was 480 min.
